Results taken from the supplement of paper PMC11006884.
The entries are a selection whose mix differs from that of the whole data set.

Amino acid sequences for entries named in this document (tags omitted). A change or cut given only in a name is not applied to a line headed by its entry.
UniProt Q9Y6J9: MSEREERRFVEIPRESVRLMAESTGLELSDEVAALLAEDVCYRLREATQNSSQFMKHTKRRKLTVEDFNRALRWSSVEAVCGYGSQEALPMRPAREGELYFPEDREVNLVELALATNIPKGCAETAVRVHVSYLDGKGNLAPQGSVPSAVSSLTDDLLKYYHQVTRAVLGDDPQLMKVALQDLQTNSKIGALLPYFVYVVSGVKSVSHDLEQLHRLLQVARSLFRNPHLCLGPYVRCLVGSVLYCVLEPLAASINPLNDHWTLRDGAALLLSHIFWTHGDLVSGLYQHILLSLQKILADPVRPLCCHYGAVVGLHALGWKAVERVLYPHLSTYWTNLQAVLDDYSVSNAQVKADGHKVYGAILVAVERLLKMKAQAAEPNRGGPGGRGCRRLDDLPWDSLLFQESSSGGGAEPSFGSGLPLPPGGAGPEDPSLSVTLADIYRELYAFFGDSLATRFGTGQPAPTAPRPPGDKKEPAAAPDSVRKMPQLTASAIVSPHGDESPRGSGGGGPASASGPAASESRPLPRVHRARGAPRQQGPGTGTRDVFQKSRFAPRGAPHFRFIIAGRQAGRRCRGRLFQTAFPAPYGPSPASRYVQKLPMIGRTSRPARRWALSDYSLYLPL
UniProt Q9Y678: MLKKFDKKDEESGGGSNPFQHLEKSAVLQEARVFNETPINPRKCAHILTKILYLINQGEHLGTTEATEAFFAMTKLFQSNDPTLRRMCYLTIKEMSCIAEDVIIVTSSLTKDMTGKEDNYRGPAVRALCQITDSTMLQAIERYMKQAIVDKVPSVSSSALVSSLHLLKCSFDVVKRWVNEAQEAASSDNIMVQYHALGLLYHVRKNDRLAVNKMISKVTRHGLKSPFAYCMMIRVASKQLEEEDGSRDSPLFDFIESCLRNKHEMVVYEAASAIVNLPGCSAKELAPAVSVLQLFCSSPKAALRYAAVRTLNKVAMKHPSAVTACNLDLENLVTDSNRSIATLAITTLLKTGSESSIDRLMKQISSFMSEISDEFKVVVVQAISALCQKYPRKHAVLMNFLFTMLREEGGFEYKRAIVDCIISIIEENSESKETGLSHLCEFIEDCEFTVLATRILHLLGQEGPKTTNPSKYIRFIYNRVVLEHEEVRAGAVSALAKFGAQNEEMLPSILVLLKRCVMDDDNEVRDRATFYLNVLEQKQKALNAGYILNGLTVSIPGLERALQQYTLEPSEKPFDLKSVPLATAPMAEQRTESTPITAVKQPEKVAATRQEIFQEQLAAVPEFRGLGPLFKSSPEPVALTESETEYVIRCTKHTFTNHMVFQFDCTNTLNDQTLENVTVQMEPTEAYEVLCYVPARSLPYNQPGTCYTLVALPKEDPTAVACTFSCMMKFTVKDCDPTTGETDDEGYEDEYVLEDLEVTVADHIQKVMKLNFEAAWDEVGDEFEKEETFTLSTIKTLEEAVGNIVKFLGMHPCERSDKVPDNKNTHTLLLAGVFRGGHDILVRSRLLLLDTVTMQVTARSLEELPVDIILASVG
UniProt Q9Y6E0: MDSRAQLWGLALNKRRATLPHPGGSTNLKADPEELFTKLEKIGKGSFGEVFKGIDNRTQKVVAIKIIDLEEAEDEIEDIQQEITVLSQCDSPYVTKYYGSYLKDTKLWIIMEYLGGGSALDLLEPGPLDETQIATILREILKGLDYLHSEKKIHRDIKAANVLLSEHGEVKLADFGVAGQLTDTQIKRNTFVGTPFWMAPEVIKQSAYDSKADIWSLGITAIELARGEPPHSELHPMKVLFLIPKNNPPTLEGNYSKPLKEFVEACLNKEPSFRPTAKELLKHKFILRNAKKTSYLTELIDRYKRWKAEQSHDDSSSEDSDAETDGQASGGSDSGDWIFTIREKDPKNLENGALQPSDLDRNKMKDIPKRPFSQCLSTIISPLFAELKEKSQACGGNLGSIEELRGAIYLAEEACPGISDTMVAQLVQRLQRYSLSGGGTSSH
UniProt Q9Y490: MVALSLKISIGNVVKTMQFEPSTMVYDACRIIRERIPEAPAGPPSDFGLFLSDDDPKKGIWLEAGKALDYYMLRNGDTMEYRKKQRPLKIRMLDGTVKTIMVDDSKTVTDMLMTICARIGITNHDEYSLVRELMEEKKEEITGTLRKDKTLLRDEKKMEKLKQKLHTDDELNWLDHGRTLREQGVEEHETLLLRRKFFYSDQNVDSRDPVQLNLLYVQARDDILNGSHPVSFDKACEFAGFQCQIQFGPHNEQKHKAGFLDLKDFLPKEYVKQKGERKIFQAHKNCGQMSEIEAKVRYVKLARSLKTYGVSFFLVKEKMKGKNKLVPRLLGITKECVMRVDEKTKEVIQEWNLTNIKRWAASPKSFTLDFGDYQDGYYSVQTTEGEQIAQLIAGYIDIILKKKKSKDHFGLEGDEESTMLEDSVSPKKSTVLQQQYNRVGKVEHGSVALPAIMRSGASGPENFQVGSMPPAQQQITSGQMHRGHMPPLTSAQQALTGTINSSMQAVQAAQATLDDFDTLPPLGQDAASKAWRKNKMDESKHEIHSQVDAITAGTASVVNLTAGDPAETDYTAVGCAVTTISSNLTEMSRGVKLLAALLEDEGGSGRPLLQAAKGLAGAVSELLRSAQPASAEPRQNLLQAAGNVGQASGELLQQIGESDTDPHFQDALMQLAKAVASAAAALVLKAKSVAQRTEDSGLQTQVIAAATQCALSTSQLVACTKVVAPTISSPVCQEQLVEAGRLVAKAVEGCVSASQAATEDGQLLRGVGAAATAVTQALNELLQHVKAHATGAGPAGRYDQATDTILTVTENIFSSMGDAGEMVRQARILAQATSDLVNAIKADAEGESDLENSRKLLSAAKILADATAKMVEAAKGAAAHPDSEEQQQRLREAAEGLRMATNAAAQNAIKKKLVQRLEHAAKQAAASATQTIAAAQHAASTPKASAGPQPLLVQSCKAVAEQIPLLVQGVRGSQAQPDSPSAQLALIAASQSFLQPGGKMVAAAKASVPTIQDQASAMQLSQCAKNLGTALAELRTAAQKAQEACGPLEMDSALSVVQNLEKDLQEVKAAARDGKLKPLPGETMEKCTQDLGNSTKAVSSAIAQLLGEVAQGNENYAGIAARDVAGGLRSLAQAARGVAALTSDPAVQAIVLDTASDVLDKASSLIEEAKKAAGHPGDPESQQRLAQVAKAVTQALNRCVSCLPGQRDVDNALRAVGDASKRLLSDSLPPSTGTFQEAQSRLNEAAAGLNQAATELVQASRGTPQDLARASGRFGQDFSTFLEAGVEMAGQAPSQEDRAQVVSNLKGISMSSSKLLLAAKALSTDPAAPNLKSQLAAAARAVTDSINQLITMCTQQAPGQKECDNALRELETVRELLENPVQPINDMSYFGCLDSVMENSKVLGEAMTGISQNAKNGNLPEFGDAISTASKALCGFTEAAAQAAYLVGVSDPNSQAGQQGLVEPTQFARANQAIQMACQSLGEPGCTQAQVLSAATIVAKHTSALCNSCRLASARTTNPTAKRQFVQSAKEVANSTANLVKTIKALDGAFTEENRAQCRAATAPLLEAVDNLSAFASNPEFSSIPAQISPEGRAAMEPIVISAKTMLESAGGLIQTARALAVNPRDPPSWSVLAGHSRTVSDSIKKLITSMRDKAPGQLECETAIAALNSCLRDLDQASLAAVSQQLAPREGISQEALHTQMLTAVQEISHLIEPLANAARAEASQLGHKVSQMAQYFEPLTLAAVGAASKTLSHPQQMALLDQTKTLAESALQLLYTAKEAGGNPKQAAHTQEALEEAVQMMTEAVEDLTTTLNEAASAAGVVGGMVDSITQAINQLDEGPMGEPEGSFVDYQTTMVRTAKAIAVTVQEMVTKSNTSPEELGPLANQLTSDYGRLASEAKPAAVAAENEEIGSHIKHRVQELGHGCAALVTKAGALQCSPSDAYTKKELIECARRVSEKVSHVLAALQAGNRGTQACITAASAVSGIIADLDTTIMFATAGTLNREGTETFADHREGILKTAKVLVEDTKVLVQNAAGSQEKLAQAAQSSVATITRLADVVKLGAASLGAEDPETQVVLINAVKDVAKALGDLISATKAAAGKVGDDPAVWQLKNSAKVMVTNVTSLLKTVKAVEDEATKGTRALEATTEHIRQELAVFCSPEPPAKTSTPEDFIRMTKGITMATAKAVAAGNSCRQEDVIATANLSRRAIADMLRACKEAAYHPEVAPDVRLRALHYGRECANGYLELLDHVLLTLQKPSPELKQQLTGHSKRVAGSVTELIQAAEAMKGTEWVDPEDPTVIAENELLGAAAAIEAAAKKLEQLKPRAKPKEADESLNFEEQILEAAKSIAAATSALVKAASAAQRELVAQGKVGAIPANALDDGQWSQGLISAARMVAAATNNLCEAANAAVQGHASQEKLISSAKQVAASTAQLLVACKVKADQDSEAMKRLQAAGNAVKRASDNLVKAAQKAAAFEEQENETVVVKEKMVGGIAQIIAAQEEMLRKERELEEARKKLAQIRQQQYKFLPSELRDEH
UniProt Q9Y5Y2: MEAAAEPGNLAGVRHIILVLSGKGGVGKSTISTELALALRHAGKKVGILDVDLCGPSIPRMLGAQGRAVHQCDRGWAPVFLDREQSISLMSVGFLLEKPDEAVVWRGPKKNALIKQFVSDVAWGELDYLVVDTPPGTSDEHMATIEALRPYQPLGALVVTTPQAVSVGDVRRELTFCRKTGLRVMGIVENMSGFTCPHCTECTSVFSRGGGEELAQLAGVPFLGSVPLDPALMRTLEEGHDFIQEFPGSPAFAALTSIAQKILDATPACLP
UniProt Q9Y6X4: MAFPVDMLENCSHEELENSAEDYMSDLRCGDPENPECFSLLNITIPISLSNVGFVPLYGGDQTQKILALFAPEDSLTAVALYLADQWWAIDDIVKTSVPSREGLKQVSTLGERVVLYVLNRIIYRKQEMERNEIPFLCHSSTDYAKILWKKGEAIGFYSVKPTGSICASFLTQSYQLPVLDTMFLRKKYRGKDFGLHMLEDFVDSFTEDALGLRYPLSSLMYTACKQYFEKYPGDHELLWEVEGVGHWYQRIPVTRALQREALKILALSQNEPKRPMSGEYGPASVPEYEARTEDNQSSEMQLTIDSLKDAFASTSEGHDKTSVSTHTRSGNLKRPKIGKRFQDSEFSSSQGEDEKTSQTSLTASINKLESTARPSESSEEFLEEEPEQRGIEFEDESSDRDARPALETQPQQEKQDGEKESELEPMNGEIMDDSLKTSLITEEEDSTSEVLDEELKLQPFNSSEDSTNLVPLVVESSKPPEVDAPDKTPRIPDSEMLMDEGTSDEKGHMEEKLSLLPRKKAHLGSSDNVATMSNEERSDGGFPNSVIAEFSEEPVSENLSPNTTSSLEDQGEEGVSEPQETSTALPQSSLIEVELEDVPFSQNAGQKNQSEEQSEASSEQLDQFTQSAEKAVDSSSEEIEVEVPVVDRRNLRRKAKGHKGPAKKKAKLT
UniProt Q9Y4R8, whole entry, looked up: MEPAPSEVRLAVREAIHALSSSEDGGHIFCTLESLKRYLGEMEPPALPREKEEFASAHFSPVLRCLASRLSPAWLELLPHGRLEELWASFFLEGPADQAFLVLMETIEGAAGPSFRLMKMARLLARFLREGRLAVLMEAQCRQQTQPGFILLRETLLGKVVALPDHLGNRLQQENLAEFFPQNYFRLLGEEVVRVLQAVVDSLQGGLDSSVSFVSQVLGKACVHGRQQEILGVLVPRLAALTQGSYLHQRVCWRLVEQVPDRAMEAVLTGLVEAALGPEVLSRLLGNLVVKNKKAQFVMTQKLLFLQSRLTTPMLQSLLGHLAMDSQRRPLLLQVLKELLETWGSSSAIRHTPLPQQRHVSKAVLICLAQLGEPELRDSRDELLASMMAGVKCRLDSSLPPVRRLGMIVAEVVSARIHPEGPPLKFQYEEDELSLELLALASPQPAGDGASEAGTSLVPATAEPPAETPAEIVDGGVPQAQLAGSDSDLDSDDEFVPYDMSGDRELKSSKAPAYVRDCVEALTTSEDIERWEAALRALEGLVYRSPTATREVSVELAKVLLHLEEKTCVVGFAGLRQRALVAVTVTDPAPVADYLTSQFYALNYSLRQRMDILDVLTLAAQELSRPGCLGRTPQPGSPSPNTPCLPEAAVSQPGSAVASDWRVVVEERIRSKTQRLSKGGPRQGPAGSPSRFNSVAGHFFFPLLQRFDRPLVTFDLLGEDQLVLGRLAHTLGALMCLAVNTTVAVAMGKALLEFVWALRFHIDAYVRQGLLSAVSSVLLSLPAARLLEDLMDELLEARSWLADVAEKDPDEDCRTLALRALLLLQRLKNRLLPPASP
UniProt Q9Y5Q3: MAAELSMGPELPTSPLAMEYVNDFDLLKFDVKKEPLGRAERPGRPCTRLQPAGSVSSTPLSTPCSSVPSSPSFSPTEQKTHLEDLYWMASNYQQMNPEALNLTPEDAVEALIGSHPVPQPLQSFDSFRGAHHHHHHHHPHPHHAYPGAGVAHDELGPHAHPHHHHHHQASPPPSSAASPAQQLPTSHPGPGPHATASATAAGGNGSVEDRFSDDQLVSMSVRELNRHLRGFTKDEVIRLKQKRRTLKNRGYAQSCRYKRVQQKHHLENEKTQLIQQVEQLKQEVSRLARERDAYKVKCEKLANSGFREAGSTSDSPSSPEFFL

Compound: COC(=O)C#Cc1ccccc1 [methyl 3-phenylpropiolate]
Experiment: log2 ratio of iodoacetamide-alkyne labeling of the cysteine site, DMSO over compound (competition); higher = stronger covalent engagement of the cysteine by the compound, active = 1 or more
Details: 500 µM; treatment time 1 h; system: HEK293T cell lysate
Summary of the method: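 After 1 h at ambient temperature with vehicle or electrophile (500 µM), HEK293T lysate (2 mg/mL) was labelled for 1 h with iodoacetamide alkyne and clicked to sCIP-TMT reagents. Pooled samples were trypsin-digested overnight at 37 °C, streptavidin-enriched, acid-eluted and analysed by Orbitrap Eclipse LC-MS/MS with FAIMS, then quantified in FragPipe over three replicates with duplicate channels. A cysteine's log2 competition ratio is its mean control-channel over mean compound-channel reporter intensity. Cysteines quantified in only one replicate were not included.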

| Target | log2 ratio of iodoacetamide-alkyne labeling |
| --- | --- |
| TAF6L C81 (UniProt Q9Y6J9) | inactive: 0.103 |
| UniProt Q9Y678_C706 | inactive: 0.389 |
| AIM1 C976 (UniProt Q9Y4K1) | inactive: 0.347 |
| UniProt Q9Y6E0_C415 | inactive: 0.286 |
| UniProt Q9Y678_C129 | inactive: 0.51 |
| TLN1 C732 (UniProt Q9Y490) | inactive: 0.177 |
| FHOD1 C502 (UniProt Q9Y613) | inactive: 0.926 |
| NUBP2 C269 (UniProt Q9Y5Y2) | inactive: 0.154 |
| FAM169A C138 (UniProt Q9Y6X4) | inactive: 0.201 |
| NME7 C228 (UniProt Q9Y5B8) | inactive: -0.145 |
| UniProt Q9Y678_C516 | inactive: 0.136 |
| TELO2 C30 (UniProt Q9Y4R8) | inactive: 0.419 |
| TLN1 C29 (UniProt Q9Y490) | inactive: 0.188 |
| PPME1 C381 (UniProt Q9Y570) | active: 1.48 |
| SAR1B C178 (UniProt Q9Y6B6) | inactive: 0.0167 |
| SAR1B C102 (UniProt Q9Y6B6) | inactive: -0.266 |

Two records picked at random from those above, as already listed:

| Target | log2 ratio of iodoacetamide-alkyne labeling |
| --- | --- |
| NUBP2 C269 (UniProt Q9Y5Y2) | inactive: 0.154 |
| TLN1 C29 (UniProt Q9Y490) | inactive: 0.188 |

(next part)

| Target | log2 ratio of iodoacetamide-alkyne labeling |
| --- | --- |
| ARFGEF2 C1147 (UniProt Q9Y6D5) | inactive: 0.255 |
| TACC3 C662 (UniProt Q9Y6A5) | inactive: 0.32 |
| UniProt Q9Y5Q3_C64 | inactive: 0.299 |
| SAMM50 C65 (UniProt Q9Y512) | inactive: -0.163 |
| TNPO3 C912 (UniProt Q9Y5L0) | inactive: 0.344 |
| AUP1 C391 (UniProt Q9Y679) | inactive: 0.156 |
| ARFGEF2 C1206 (UniProt Q9Y6D5) | inactive: 0.178 |
| UCHL5 C9 (UniProt Q9Y5K5) | inactive: 0.147 |
| TLN1 C1434 (UniProt Q9Y490) | inactive: 0.146 |
| UTP18 C90 (UniProt Q9Y5J1) | inactive: 0.294 |
| TACC3 C20 (UniProt Q9Y6A5) | inactive: 0.333 |
| FAM169A C11 (UniProt Q9Y6X4) | inactive: -0.0829 |
| TCAF1 C488 (UniProt Q9Y4C2) | inactive: 0.36 |
| DTNA C583 (UniProt Q9Y4J8) | inactive: 0.31 |
| TELO2 C367 (UniProt Q9Y4R8) | inactive: 0.0485 |
